PubChem BioAssay AID1259424, University of Nebraska Medical Center | 2018

Test: 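Find knockdowns that reproduce the expression shifts seen after KSR1 loss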 (primary screen)
Cells: human HCT116 colon cancer cells
Reagents: siRNA pool against human genes, 50 nM
Measurement: 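Log2 levels of six mRNAs (branched-DNA multiplex), adjusted by two reference genes and the non-targeting median, then scored against the average KSR1 knockdown pattern as Pearson r and euclidean distance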
Scale: mean correlation with KSR1 profile and KSR1 correlation: higher = expression change more like KSR1 knockdown; mean distance from KSR1 profile: higher = expression change less like KSR1 knockdown
The whole screen tested about 14,000 reagents; this is an unselected part. 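Higher correlation or smaller distance means closer resemblance to KSR1 loss; control wells, including KSR1 knockdowns, recur on many plates.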 No sequences are given here. Not given: the time to read-out.

mean correlation with KSR1 profile,mean distance from KSR1 profile,"KSR1 correlation, replicate 1","KSR1 correlation, replicate 2","KSR1 correlation, replicate 3",gene
0.0745,2.77,0.134,0.343,-0.0697,TTC21B (GeneID 79809)
-0.577,1.44,-0.736,-0.585,-0.376,CNOT4 (GeneID 4850)
-0.228,2.1,-0.0673,-0.591,-0.26,NSDHL (GeneID 50814)
-0.526,2.86,-0.554,-0.645,-0.448,FIGN (GeneID 55137)
0.25,2.72,0.166,0.183,0.406,PYY2 (GeneID 23615)
-0.548,2.27,-0.55,-0.592,-0.664,ZNF253 (GeneID 56242)
0.151,2.76,0.152,0.257,0.255,P2RY11 (GeneID 5032)
-0.195,2.03,0.346,-0.333,-0.397,SLC12A7 (GeneID 10723)
-0.0973,3.11,-0.457,-0.342,0.0787,TTC23 (GeneID 64927)
0.854,1.64,0.946,0.83,0.648,PPP1R14D (GeneID 54866)
0.628,2.21,0.526,0.535,0.649,KRTAP4-4 (GeneID 84616)
0.412,1.99,0.316,0.381,0.45,TACO1 (GeneID 51204)
-0.641,3.04,-0.575,-0.405,-0.485,MAST3 (GeneID 23031)
0.883,2.27,0.857,0.802,0.921,LPAR5 (GeneID 57121)
0.144,1.16,0.148,0.508,-0.17,BUD31 (GeneID 8896)
0.432,3.29,0.539,0.513,0.284,LIMD1 (GeneID 8994)
0.0341,1.46,0.27,-0.225,-0.556,XRCC6 (GeneID 2547)
0.00971,1.95,0.291,0.0317,-0.146,SSBP2 (GeneID 23635)
0.345,1.29,-0.0118,0.373,0.394,CHRM4 (GeneID 1132)
-0.477,1.81,-0.606,-0.675,0.522,TOMM70 (GeneID 9868)
-0.129,1.68,-0.258,-0.116,-0.0694,RPS20 (GeneID 6224)
-0.191,2.41,-0.0603,-0.453,-0.113,RBMX2 (GeneID 51634)
0.211,2.19,0.109,0.0049,0.191,EMD (GeneID 2010)
0.604,2.65,0.632,0.478,0.7,TRAF2 (GeneID 7186)
0.0566,2.28,0.268,0.155,0.0751,TCF12 (GeneID 6938)
0.127,2.05,0.102,0.207,0.028,ALOX12B (GeneID 242)
-0.336,1.02,-0.695,0.384,-0.0702,COX5A (GeneID 9377)
0.316,1.88,0.419,0.394,0.136,PCDHGA12 (GeneID 26025)
0.115,1.12,-0.0342,-0.503,0.561,DNAJB9 (GeneID 4189)
0.767,1.77,0.834,0.831,0.651,NFYA (GeneID 4800)
-0.242,4.5,-0.413,-0.112,-0.0855,CAPN10 (GeneID 11132)
-0.408,1.93,-0.283,-0.533,-0.471,PLPP3 (GeneID 8613)
-0.353,2.69,-0.417,-0.344,-0.364,TINAGL1 (GeneID 64129)
-0.192,1.49,-0.272,-0.269,0.126,SCFD1 (GeneID 23256)
